Results are given in words; binding and its absence hold for the method and conditions named. Binding seen in cells or lysates may run through a third protein. Some results given as binding are weak or reduced against the parent protein; the word gives no strength. For some assays here: Where a sequence is shown, tags or fusion partners need not be part of it.
Legend:
[1] = molecular target: T1, C-terminal Myc-tagged Tob (human) (UniProt P50616); assay: co-IP; Supplementary Fig. 5c; legend not shown, taken as immunoprecipitation, the only binding method of the paper; cells and bait not told
T1 sequence: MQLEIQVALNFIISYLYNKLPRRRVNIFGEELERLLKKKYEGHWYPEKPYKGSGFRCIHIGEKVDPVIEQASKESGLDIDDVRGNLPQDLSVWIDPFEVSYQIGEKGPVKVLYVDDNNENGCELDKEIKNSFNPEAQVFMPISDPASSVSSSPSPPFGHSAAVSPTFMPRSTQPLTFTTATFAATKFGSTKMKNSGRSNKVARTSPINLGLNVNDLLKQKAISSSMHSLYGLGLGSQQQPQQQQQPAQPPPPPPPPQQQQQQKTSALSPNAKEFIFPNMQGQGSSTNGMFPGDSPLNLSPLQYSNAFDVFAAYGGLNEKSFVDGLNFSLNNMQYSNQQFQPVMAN

By UniProt entry, the sequences of proteins in these tests, tags left out. Residues count along the entry.
UniProt P06804, residues 80-235: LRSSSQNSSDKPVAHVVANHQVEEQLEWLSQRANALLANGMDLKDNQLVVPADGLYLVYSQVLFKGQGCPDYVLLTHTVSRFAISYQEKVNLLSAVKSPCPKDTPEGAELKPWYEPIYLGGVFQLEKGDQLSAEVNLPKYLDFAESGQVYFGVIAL
UniProt Q96EP0: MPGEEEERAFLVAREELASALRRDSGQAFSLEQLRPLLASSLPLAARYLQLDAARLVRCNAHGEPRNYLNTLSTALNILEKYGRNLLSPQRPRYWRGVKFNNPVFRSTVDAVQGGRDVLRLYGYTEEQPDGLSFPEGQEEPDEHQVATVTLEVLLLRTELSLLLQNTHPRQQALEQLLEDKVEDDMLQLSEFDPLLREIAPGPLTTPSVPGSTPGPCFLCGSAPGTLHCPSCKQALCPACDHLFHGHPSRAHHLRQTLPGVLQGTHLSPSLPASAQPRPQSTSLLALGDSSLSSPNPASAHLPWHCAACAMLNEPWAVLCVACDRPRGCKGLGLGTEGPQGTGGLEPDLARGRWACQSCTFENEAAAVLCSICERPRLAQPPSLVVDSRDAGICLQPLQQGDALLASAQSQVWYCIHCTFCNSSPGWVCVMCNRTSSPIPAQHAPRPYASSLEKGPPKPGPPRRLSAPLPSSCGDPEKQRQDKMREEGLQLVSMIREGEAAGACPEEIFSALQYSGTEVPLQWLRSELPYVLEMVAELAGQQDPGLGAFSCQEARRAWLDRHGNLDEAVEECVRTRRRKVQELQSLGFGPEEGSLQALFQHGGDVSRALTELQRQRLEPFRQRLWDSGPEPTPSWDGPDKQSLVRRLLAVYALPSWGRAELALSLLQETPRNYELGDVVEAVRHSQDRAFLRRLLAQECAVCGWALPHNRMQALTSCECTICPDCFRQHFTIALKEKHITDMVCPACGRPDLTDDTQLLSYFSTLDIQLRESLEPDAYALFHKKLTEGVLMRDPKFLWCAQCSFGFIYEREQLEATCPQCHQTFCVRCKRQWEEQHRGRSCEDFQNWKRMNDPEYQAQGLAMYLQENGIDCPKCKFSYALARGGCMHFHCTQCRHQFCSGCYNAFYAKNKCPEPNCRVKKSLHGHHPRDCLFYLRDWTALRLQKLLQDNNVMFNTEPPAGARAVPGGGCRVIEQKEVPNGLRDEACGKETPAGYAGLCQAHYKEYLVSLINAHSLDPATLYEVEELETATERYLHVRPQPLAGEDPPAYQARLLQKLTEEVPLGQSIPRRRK
UniProt Q13546: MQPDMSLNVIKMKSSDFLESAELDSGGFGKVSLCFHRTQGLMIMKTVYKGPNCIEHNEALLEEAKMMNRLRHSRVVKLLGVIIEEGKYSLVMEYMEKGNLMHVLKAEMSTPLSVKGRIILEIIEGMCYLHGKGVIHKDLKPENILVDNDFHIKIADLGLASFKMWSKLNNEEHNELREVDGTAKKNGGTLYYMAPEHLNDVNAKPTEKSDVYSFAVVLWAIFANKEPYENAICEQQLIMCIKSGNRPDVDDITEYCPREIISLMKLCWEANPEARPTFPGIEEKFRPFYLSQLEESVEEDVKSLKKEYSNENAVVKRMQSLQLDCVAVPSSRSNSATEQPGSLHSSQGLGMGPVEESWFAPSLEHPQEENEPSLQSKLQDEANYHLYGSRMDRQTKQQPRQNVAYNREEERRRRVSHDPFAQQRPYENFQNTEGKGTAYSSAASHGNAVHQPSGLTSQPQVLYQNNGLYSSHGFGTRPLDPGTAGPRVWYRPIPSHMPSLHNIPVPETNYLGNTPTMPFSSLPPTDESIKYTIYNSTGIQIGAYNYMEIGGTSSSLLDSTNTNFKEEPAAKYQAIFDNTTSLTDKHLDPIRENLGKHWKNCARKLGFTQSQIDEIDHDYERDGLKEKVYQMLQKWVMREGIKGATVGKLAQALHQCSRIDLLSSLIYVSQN
UniProt Q9Y6K9: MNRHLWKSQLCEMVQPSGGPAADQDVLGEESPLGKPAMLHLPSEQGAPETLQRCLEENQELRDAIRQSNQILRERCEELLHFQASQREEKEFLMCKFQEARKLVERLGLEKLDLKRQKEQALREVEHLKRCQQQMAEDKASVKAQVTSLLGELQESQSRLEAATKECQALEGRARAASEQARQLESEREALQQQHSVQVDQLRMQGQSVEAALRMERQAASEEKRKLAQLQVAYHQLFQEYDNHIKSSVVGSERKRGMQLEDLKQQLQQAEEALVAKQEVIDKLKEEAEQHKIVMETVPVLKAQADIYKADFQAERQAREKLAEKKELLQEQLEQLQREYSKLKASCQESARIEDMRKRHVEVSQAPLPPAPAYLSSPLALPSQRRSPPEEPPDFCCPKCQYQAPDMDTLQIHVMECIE

[2] = molecular target: T2, Tob (Transducer of ErbB2) (human (endogenous in MCF-7 and SK-BR3)) (UniProt P50616); assay: co-IP; immunoprecipitation with anti-Tob antibody from lysates of MCF-7 (parental or Tob KO) and SK-BR3 cells treated with 10 ng/mL TNF-α for the indicated times; TNEN buffer (20 mM Tris-HCl pH 7.5, 150 mM NaCl, 1 mM EDTA, 1% NP-40), 4 °C; immunoblot
T2 sequence: T1 sequence

[3] = molecular target: T1, C-terminal Myc-tagged Tob (human); assay: co-IP; HEK 293T cells co-transfected for 24 h; immunoprecipitation with anti-Myc tag antibody; TNEN buffer (20 mM Tris-HCl pH 7.5, 150 mM NaCl, 1 mM EDTA, 1% NP-40), 4 °C; immunoblot
[4] = molecular target: mouse Flag-tagged TNF-α (mouse) (UniProt P06804); assay: co-IP; TNFR complex I purification: MEFs stimulated with 2 μg/mL Flag-tagged TNF-α, lysed (30 mM Tris-HCl pH 7.5, 120 mM NaCl, 2 mM EDTA, 2 mM KCl, 10% glycerol, 1% Triton X-100), precipitated overnight at 4 °C with anti-Flag M2 beads; immunoblot; only the target purified

HOIP (pCMV3-Flag8-HOIP) (from UniProt Q96EP0 1-1072)
binding [1]: binds

HOIL-1L (pCMV3-Flag8-HOIL-1L) (from UniProt Q9BYM8-1 1-510)
binding [1]: binds

Receptor Interacting Protein kinase 1 (RIPK1) (from UniProt Q13546 1-671)
binding [2]: binds

NF-κB essential modulator (NEMO) (from UniProt Q9Y6K9 1-419)
binding [2]: binds

human NEMO (pRK5-human NEMO) (from UniProt Q9Y6K9 1-419)
binding [3]: binds

N-terminal Flag-tagged RIPK1 (pRK5-Flag-human RIPK1) (from UniProt Q13546 1-671)
binding [3]: binds

B1: SHARPIN (pCMV3-Flag8-SHARPIN) (protein, UniProt Q9H0F6 1-387)
chain: MAPPAGGAAAAASDLGSAAVLLAVHAAVRPLGAGPDAEAQLRRLQLSADPERPGRFRLELLGAGPGAVNLEWPLESVSYTIRGPTQHELQPPPGGPGTLSLHFLNPQEAQRWAVLVRGATVEGQNGSKSNSPPALGPEACPVSLPSPPEASTLKGPPPEADLPRSPGNLTEREELAGSLARAIAGGDEKGAAQVAAVLAQHRVALSVQLQEACFPPGPIRLQVTLEDAASAASAASSAHVALQVHPHCTVAALQEQVFSELGFPPAVQRWVIGRCLCVPERSLASYGVRQDGDPAFLYLLSAPREAPATGPSPQHPQKMDGELGRLFPPSLGLPPGPQPAASSLPSPLQPSWSCPSCTFINAPDRPGCEMCSTQRPCTWDPLAAAST
binding [1]: binds

B2: Tob (in the TNFR complex IP experiment) (protein, UniProt Q61471 1-362)
chain: MQLEIQVALNFIISYLYNKLPRRRVNIFGEELERLLKKKYEGHWYPEKPYKGSGFRCIHVGEKVDPVIEQASKESGLDIDDVRGNLPQDLSVWIDPFEVSYQIGEKGPVKVLYVDDSSETGCELDKEIKNSFNPEAQVFMPISDPASSVSSSPSPPFGHSAAVSPTFMPRSTQPLTFTTATFAATKFGSTKMKNSGRSSKVARTSPINLGLTVNVNDLLKQKAISSSVHSLYGLGLGSQQQPQPQPQQQQQQQPSSSQPPPPLPQQQQQQPQQQQQQQQQTSALSPNAKEFIFPNMQGQGSSTNGMFPGDSPLNLSPLQYSNAFDVFAAYGGLNEKSFVDGLNFSLNNMQYSNQQFQPVMAN
modifications: appeared to be polyubiquitylated
binding [4]: binds
